Experimental findings from the supplement of paper PMC7125110 are described below.

Sequences and labels used below:
B1: glmS ribozyme (parent)
chain: AUAAAAGCGCCAGAACUACAGAAAUGUAGUUGACGAGGAGGAGGUUUAUCGAAUUUUCGGCGGAUGCCUCCAAA

± gives the standard error. Many entries were measured with a wide error.

The first series covers variants of B1. Briefly: self-cleavage kobs at 40 uM GlcN6P; higher = faster cleavage; RNA array. As to conditions: with glucosamine-6-phosphate. The essentials:
(§1)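 Glucosamine-6-phosphate (40 μM to 10 mM) in HEPES/KCl/Mg(OAc)2 buffer was flowed over sequenced MiSeq chips, and tiles were imaged over ~14 h. Barcoded ribozyme variants there had been transcribed in situ by E. coli RNA polymerase and were tracked through a hybridised Cy3 probe at 37 °C. One- or two-exponential decay fits to per-tile medians, normalised to baseline and to non-cleaving reference variants, gave kobs. kcat and KM came from weighted Michaelis–Menten fits across concentrations.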
Regarding U46A U56A, the “self-cleavage kobs at 40 uM GlcN6P” value was 1.66e-05 ± 9.5e-06 s⁻¹. Consider G29U C58U C68A U69C, for which the “self-cleavage kobs at 40 uM GlcN6P” value came out at 3.95e-05 ± 3e-05 s⁻¹. Consider A15G U46G C67G, for which the “self-cleavage kobs at 40 uM GlcN6P” value is 3.43e-05 ± 2.6e-05 s⁻¹. Same read-out and setting: then U46G G66U, with 2.59e-05 ± 1.6e-05 s⁻¹. For the variant U56G U69G, the “self-cleavage kobs at 40 uM GlcN6P” value worked out at 2.78e-05 ± 1.7e-05 s⁻¹. With A6G A53G, the “self-cleavage kobs at 40 uM GlcN6P” value amounted to 1.88e-05 ± 1.4e-05 s⁻¹. With U31C G40U, the “self-cleavage kobs at 40 uM GlcN6P” value was 1.5e-05 ± 1.5e-05 s⁻¹. For U45C G66U, the “self-cleavage kobs at 40 uM GlcN6P” value was 2.65e-05 ± 1.9e-05 s⁻¹.

With C50G G63U, the “self-cleavage kobs at 40 uM GlcN6P” value worked out at 2.01e-05 ± 1.3e-05 s⁻¹. With C50G U56A, the “self-cleavage kobs at 40 uM GlcN6P” value was determined as 2.91e-05 ± 1.9e-05 s⁻¹. In the case of A12U G44A, the “self-cleavage kobs at 40 uM GlcN6P” value worked out at 1.92e-05 ± 1.3e-05 s⁻¹. On to G32A C50G, for which the “self-cleavage kobs at 40 uM GlcN6P” value is 4.05e-05 ± 2.1e-05 s⁻¹. Still for that read-out and setting: then U54G G66C, with 2.1e-05 ± 1.3e-05 s⁻¹; and A14U G29C U46G C70A, with 3.1e-05 ± 2.4e-05 s⁻¹.

The next series covers variants of B1. Briefly: KM; higher = weaker cofactor use; RNA array. The following applies: with glucosamine-6-phosphate. The essentials: as §1
A word on the KM: it is the concentration of substrate that gives half-maximal velocity. For U57A C58U, the KM stood at 17.3 ± 1.2 mM. In the case of U55G U56G, the KM worked out at 3.06 ± 1.8 mM. For C61U C70U, the KM came to 1.16 ± 0.87 mM. For G60C C70G, the KM was 1.42 ± 1.3 mM. As to U54A G59A, the Michaelis constant (KM) was determined as 4.22 ± 1.3 mM.

Variants of B1 are the subject of another series. The experiment in a line: self-cleavage kobs at 640 uM GlcN6P; higher = faster cleavage; RNA array. As to conditions: with glucosamine-6-phosphate. Put shortly:
as §1
Regarding C8G U69G, the “self-cleavage kobs at 640 uM GlcN6P” value amounted to 0.00159 ± 0.0012 s⁻¹. Regarding G9U C50G, the “self-cleavage kobs at 640 uM GlcN6P” value came out at 0.000513 ± 0.00041 s⁻¹. In the case of U30G U31A, the “self-cleavage kobs at 640 uM GlcN6P” value was determined as 0.00548 ± 0.0037 s⁻¹. For the variant C11G G32A U69G, the “self-cleavage kobs at 640 uM GlcN6P” value was found to be 3.94e-05 ± 2.5e-05 s⁻¹. With C16A G32U C34A A36G C70G, the “self-cleavage kobs at 640 uM GlcN6P” value came to 2.73e-05 ± 2.5e-05 s⁻¹. In the case of G29A C61G C68U, the “self-cleavage kobs at 640 uM GlcN6P” value was 4.47e-05 ± 2.4e-05 s⁻¹. As to G7U U54G C70G C71U, the “self-cleavage kobs at 640 uM GlcN6P” value was 3.79e-05 ± 3.7e-05 s⁻¹. For C8U C50G G63U, the “self-cleavage kobs at 640 uM GlcN6P” value is 2.34e-05 ± 2.3e-05 s⁻¹. Regarding C50G G63U, the “self-cleavage kobs at 640 uM GlcN6P” value came to 2.48e-05 ± 1.9e-05 s⁻¹.

With C16U C34G C67G, the “self-cleavage kobs at 640 uM GlcN6P” value worked out at 4.58e-05 ± 3.1e-05 s⁻¹.

Regarding C8G C16G A36U C50G, the “self-cleavage kobs at 640 uM GlcN6P” value worked out at 0.000951 ± 0.00056 s⁻¹. As for A6U A52G C67G, the “self-cleavage kobs at 640 uM GlcN6P” value came to 2.92e-05 ± 1.8e-05 s⁻¹. With A14U G29C U46G C70A, the “self-cleavage kobs at 640 uM GlcN6P” value was determined as 5.34e-05 ± 3.5e-05 s⁻¹. In the case of U30A C58G G59A C70G, the “self-cleavage kobs at 640 uM GlcN6P” value turned out to be 2.07e-05 ± 1.8e-05 s⁻¹.

Variants of B1 are the subject of another series. Briefly: self-cleavage kobs at 160 uM GlcN6P; higher = faster cleavage; RNA array. As to conditions: with glucosamine-6-phosphate. The essentials: as §1
As for G9U C50G, the “self-cleavage kobs at 160 uM GlcN6P” value is 2.77e-05 ± 1.7e-05 s⁻¹. In the case of U56G U69G, the “self-cleavage kobs at 160 uM GlcN6P” value is 4.18e-05 ± 2.4e-05 s⁻¹.

Regarding C50G G63U, the “self-cleavage kobs at 160 uM GlcN6P” value stood at 3.61e-05 ± 1.8e-05 s⁻¹. For C16U C34G C67G, the “self-cleavage kobs at 160 uM GlcN6P” value was determined as 0.00011 ± 6.1e-05 s⁻¹. The same measure, in the same setting: then C50G U56A, with 3.17e-05 ± 2.4e-05 s⁻¹.

In a further series the parent is B1. The experiment in a line: self-cleavage kobs at 2500 uM GlcN6P; higher = faster cleavage; RNA array. The following applies: with glucosamine-6-phosphate. Put shortly: as §1
As for G9U C50G, the “self-cleavage kobs at 2500 uM GlcN6P” value is 2.42e-05 ± 1.6e-05 s⁻¹. In the case of C11G G32A U69G, the “self-cleavage kobs at 2500 uM GlcN6P” value was 3.91e-05 ± 2.7e-05 s⁻¹. On to U54A G59A, for which the “self-cleavage kobs at 2500 uM GlcN6P” value is 2.31e-05 ± 1.4e-05 s⁻¹.

Regarding C50G G63U, the “self-cleavage kobs at 2500 uM GlcN6P” value amounted to 2.37e-05 ± 1.7e-05 s⁻¹. Consider C16U C34G C67G, for which the “self-cleavage kobs at 2500 uM GlcN6P” value amounted to 3.64e-05 ± 3.6e-05 s⁻¹. The same measure, in the same setting: then C8G C16G A36U C50G, with 5.84e-05 ± 3.1e-05 s⁻¹.

Take G32A C50G: the “self-cleavage kobs at 2500 uM GlcN6P” value stood at 2.99e-05 ± 2.6e-05 s⁻¹.

Another series covers variants of B1. The experiment in a line: self-cleavage kobs at 10000 uM GlcN6P; higher = faster cleavage; RNA array. The following applies: with glucosamine-6-phosphate. Put shortly: as §1
With C11G G32A U69G, the “self-cleavage kobs at 10000 uM GlcN6P” value was 2.12e-05 ± 1.9e-05 s⁻¹. As to C8U C50G G63U, the “self-cleavage kobs at 10000 uM GlcN6P” value was determined as 2.03e-05 ± 1.9e-05 s⁻¹.

Turning to C50G U56A, the “self-cleavage kobs at 10000 uM GlcN6P” value was determined as 2.4e-05 ± 1.5e-05 s⁻¹.
